Results are given in words; binding and its absence hold for the method and conditions named. Binding seen in cells or lysates may run through a third protein. Some entries that bind do so weakly or less than the wild type.
Assays:
[1] = biological target: Argonaute 2 (human (endogenous in hSAECs)) (UniProt Q9UKV8); assay: proximity ligation; Duolink in situ PLA in fixed, permeabilised hSAECs (Ctrl C4 and LIMD1 KO C2) with mouse anti-AGO2 and rabbit anti-GW182/TNRC6A; foci per cell counted
[2] = biological target: Argonaute 2 (human (endogenous in hSAECs)) (UniProt Q9UKV8); assay: co-IP; endogenous AGO2 precipitated with mouse IgA anti-AGO2 (sc-53521) from hSAEC lysates (Ctrl C4 and LIMD1 KO C2 clones); NP-40 buffer (150 mM NaCl, 50 mM tris-HCl pH 8.0, 0.7% NP-40, 5% glycerol), overnight at 4°C, Protein L magnetic beads; blots for TNRC6A and TNRC6B

The chains behind the UniProt entries cited, without tags or fusion partners.
UniProt Q9UKV8: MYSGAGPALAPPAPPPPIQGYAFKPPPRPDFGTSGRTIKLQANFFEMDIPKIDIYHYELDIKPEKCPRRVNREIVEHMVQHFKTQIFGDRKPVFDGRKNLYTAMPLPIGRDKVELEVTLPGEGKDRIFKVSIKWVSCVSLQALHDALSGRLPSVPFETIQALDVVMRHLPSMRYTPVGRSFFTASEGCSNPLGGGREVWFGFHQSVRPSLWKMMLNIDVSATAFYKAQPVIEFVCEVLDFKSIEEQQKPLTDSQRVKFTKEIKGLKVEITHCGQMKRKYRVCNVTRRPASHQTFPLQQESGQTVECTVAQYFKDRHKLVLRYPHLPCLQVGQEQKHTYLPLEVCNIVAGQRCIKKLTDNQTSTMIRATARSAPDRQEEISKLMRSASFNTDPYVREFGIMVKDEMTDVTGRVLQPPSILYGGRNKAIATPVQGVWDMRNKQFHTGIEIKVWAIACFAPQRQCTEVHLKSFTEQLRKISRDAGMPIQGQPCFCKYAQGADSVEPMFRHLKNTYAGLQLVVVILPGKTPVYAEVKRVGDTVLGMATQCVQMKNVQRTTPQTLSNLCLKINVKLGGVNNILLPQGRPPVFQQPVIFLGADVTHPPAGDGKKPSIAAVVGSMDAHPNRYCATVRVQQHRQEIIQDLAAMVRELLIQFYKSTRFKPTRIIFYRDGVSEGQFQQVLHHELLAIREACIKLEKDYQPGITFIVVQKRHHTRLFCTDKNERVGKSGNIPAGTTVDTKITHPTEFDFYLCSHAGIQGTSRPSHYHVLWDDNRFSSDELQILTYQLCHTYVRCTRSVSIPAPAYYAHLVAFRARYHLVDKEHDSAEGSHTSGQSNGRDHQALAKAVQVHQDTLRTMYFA
UniProt Q8NDV7: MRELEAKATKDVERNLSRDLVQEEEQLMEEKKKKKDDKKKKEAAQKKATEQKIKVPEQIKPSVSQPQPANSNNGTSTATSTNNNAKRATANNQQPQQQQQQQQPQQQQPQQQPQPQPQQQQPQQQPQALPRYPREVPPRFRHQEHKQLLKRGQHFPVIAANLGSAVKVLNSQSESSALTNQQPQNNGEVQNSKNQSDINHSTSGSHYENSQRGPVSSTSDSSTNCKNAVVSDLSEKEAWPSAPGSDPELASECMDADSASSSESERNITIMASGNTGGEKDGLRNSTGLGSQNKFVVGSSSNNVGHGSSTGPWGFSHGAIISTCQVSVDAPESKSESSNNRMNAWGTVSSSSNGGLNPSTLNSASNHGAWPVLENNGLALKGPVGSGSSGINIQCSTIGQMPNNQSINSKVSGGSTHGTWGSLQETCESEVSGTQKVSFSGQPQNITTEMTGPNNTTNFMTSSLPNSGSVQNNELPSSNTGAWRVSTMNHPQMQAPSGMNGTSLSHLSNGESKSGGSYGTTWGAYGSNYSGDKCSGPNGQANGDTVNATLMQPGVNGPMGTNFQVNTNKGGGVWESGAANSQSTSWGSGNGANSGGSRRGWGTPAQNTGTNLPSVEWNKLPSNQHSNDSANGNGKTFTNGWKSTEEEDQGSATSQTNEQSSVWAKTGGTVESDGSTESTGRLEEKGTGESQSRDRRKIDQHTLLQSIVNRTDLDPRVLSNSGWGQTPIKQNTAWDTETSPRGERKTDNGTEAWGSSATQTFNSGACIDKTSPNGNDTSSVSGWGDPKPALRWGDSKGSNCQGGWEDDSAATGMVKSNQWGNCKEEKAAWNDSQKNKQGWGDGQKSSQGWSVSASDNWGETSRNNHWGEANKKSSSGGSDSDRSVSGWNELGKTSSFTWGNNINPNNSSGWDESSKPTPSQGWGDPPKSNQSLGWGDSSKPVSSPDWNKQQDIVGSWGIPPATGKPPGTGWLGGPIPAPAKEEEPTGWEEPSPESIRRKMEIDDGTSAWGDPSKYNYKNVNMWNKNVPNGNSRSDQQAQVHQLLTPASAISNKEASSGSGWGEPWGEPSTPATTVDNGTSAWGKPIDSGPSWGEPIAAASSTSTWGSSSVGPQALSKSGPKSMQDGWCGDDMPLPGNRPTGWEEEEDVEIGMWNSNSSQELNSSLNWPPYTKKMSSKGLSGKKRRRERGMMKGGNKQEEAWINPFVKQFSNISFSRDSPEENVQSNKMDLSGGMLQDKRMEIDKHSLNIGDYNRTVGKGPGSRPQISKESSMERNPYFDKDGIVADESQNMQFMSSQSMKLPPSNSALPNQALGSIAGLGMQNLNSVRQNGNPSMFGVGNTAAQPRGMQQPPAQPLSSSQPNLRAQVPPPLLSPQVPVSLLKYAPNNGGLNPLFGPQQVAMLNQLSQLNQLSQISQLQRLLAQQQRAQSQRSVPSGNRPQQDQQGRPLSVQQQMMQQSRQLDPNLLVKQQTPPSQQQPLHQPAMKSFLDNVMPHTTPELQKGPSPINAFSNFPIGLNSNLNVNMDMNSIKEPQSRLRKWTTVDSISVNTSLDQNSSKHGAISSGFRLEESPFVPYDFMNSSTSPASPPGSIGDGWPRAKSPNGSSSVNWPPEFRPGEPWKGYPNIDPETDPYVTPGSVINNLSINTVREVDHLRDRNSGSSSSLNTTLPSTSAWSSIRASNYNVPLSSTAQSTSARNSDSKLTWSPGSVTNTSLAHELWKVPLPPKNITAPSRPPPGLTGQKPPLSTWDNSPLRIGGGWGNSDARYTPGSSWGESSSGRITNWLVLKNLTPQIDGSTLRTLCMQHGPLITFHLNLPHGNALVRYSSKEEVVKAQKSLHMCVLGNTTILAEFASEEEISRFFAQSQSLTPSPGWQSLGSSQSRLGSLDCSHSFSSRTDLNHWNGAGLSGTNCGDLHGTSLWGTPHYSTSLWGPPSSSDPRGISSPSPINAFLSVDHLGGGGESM
UniProt Q9UPQ9: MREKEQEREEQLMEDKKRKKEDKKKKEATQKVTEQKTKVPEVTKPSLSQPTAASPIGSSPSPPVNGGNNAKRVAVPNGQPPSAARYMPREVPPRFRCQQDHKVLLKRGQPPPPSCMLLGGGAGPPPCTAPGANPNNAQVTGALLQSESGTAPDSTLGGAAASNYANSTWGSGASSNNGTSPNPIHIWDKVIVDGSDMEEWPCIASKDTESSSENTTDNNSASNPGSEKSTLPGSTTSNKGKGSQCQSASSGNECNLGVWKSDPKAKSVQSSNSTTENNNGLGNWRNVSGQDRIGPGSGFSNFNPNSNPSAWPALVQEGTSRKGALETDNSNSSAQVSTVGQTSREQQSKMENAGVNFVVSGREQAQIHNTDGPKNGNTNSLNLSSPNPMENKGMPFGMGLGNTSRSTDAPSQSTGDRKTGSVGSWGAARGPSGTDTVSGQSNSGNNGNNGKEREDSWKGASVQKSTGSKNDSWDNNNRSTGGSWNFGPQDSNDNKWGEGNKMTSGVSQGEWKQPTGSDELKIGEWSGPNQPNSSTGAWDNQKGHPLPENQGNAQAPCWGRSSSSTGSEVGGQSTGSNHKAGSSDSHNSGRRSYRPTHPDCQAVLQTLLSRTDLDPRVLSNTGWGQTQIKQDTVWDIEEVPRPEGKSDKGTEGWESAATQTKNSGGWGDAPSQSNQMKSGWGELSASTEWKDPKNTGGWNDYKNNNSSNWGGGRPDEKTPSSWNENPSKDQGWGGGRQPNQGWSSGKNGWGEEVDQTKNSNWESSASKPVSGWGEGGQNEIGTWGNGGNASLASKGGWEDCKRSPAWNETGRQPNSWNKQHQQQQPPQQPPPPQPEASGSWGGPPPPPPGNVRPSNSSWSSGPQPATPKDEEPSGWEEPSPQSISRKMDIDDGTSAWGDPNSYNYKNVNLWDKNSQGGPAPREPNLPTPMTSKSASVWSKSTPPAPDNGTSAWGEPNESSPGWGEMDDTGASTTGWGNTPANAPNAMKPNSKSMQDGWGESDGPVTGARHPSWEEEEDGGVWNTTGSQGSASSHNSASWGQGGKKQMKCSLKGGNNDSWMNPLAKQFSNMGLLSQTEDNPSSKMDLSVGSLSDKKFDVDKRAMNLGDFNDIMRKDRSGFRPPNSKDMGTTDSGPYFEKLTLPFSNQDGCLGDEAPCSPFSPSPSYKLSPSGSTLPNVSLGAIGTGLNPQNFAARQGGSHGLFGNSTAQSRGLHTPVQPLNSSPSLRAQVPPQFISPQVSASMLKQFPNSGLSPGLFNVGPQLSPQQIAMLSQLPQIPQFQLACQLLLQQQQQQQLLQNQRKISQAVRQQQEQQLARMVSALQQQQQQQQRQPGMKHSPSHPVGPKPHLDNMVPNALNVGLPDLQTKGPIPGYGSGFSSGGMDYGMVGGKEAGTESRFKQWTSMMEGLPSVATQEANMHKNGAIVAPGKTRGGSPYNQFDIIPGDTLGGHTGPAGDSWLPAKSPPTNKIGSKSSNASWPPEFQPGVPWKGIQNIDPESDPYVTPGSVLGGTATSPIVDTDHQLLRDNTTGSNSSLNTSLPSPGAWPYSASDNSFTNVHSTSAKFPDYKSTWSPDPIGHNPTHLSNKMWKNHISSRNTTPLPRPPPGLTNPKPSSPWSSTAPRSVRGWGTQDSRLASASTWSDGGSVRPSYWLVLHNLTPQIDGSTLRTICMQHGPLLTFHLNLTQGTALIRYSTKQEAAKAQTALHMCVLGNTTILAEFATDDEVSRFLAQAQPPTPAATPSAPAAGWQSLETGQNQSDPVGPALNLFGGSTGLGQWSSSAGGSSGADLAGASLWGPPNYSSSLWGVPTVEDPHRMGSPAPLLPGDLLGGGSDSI

Row | binding [1] | binding [2] | Substance
1 | binds | binds | trinucleotide repeat-containing 6A (from UniProt Q8NDV7 1-1962)
2 |  | binds | trinucleotide repeat-containing 6B (from UniProt Q9UPQ9 1-1833)
